No constants are given. Whether binding was seen depends on the method and setting. Some binding calls cover weakened binding; strength is not graded here.

Protein sequences, listed by entry. Tags and fused reporters are not part of them. Lines headed by an entry give the natural chain unless they say otherwise; changes in a name come on top.
UniProt P08183: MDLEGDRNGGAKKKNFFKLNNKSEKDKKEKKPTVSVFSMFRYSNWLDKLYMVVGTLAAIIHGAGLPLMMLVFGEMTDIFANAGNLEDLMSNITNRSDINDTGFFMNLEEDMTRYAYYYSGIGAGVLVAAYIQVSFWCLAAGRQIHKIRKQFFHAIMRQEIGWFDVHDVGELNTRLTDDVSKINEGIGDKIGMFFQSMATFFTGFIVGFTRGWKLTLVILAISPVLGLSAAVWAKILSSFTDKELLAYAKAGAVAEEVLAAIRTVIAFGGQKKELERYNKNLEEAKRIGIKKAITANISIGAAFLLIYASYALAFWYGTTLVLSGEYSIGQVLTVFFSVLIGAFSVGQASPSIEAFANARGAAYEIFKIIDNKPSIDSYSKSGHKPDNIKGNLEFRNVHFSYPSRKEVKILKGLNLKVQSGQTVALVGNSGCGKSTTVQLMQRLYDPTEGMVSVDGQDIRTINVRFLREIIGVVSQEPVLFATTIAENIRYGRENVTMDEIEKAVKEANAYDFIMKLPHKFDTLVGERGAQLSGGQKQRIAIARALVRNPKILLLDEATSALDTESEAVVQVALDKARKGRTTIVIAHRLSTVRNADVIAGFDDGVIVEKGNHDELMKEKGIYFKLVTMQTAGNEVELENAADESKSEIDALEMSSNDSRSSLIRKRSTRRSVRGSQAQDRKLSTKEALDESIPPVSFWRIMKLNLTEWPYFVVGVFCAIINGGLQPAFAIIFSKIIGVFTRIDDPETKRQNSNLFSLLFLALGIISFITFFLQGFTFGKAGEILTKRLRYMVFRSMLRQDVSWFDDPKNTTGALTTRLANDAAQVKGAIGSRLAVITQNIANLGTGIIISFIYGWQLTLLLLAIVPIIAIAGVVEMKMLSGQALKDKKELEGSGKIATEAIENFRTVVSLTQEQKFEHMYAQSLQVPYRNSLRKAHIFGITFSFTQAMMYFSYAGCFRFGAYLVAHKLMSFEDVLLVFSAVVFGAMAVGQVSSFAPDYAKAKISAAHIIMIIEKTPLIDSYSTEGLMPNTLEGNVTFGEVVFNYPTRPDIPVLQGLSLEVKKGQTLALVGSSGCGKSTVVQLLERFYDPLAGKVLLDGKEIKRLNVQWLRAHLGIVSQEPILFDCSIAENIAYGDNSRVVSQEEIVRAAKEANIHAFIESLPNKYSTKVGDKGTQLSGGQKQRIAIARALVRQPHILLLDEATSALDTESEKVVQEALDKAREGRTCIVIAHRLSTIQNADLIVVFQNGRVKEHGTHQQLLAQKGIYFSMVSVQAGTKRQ

We go through two molecules from patent US20230203156A1, “ANTI-MDR1 ANTIBODIES AND USES THEREOF” (KENJOCKETY BIOTECHNOLOGY, INC., priority 2020, published 2023).

In assay [1] the target is human MDR1 (multidrug resistance protein 1) (human) (UniProt P08183). Kind of assay: binding to MES-SA DX5 and A2780ADR cells, which express both ABCB1 and CD47.
Assay [2] shares this target. Kind of assay: flow cytometry on cells expressing human MDR1. A general note: A flow cytometer gives signals particle by particle.
Assay [3] shares this target. The assay can be described thus: flow cytometry.
For assay [4], the target named is cynomolgus MDR1 (Macaca fascicularis) (Macaca fascicularis (cynomolgus)). Kind of assay: flow cytometry.
Assay [5] has the same target. The assay can be described thus: flow cytometry on cells expressing cynomolgus MDR1.

B1: KB1-1401 (15D3VH:MRK16VL::MRK16VL:5F9VH) (bispecific antibody, V domains shown)
VH 1: EVKVVESGGVLVRPGGSLKLSCAASGFTFSRYTMSWVRQTPEKRLEWVATISSGGGNTYYPDSVKGRFTVSRDNAMSSLYLQMSSLRSEDTALYYCARYGAGDAWFAYWGQGTLVTVSS
VH 2: QVQLVQSGAEVKKPGASVKVSCKASGYTFTNYNMHWVRQAPGQRLEWMGTIYPGNDDTSYNQKFKDRVTITADTSASTAYMELSSLRSEDTAVYYCARGGYRAMDYWGQGTLVTVSS
VL: DVLMTQTPVSLSVSLGDQASISCRSSQSIVHSTGNTYLEWYLQKPGQSPKLLIYKISNRFSGVPDRFSGSGSGTDFTLKISRVEAEDLGVYYCFQASHFPRTFGGGTKLEIK
For B1, the binding entry in assay [1] is “binds”.

B2: B1.261.huH2(VH3)-huL1 (antibody, human IgG1, V domains shown)
VH: EVQLVESGGGLIQPGGSLRLSCAVSGFSLTSYGVHWVRQPPGKGLEWLVVIWSDGSTTYNSALKSRLTISKDNSKNTVYLQMNSLRAEDTAVYYCARHGRWLLQRGGAMDYWGQGTMVTVSS
VL: DVQMTQSPSSLSASVGDRVTITCRASQNVGSYIAWYQQKPGKSPKALIYSASYRSSGVPSRFSGSGAGTDFTLTISSLQPEDFATYFCQQYNSYPLTFGGGTKLEIK
For the molecule B2, the binding entry in assay [2], in assay [3], in assay [4] and in assay [5] was “binds” each time.
